# PubChem BioAssay AID504808, Drosophila RNAi Screening Center, 2011
# Purpose: 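Genes whose loss lifts activity of an E2F-responsive reporter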 (primary screen)
# Cells: Drosophila S2 cells
# Reagent: long dsRNA against Drosophila genes
# Measured: 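Firefly luciferase driven by E2F sites, normalised to Renilla luciferase on the same minimal promoter, measured by plate reader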
# Direction: E2F firefly: higher = more E2F reporter activity; Renilla normaliser: higher = more normaliser reporter signal
# Hit rule: 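Called active if the normalised E2F reporter went up by over 50%; the cutoff is arbitrary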
# The deposit covers about 21,000 reagents; shown is a random part of those that have a named target and a result. Over the whole deposit, 18 (0.084%) were called active. 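Raw counts without plate normalisation, one of two replicates; the ratio scores behind the calls were not deposited.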 Unmarked entries are inactive. The numbers tell different reagents against one gene apart. A plus sign joins genes that one reagent is predicted to hit. Reagent sequences are not shown. Not stated in the record: the amount of reagent, the time to read-out.
The first 8 records, ahead of the listing:
predicted target,reagent no.,"E2F firefly, rep 1","Renilla normaliser, rep 1"
CG9861,1,88869,4182
Pp1alpha-96A,1,1.13e5,5712
Dhc64C,1,78416,3595
Tbce,1,86296,3384
twe,1,77031,3710
CG13511,1,1.05e5,4861
CG13694,1,1.54e5,5845
Rap1,1,74366,3168

The listing, from the first entry:
predicted target,reagent no.,"E2F firefly, rep 1","Renilla normaliser, rep 1"
CG9861,1,88869,4182
Pp1alpha-96A,1,1.13e5,5712
Dhc64C,1,78416,3595
Tbce,1,86296,3384
twe,1,77031,3710
CG13511,1,1.05e5,4861
CG13694,1,1.54e5,5845
Rap1,1,74366,3168
fon,1,80118,3309
CG34167,1,1.40e5,7007
CG8584,1,1.52e5,5012
ppk13,1,1.03e5,4363
l(2)k09848,1,84204,3882
RpL27A,1,92392,144
CG13724,1,1.17e5,5802
CG31099,1,1.02e5,5810
CG15210,1,1.24e5,5580
CG13133,1,1.55e5,5094
CG7582,1,1.31e5,6991
CG14671,1,1.38e5,6459
smp-30,1,1.16e5,5925
aus,1,78153,2600
aus,2,83987,2610
aus,3,65962,4222
tamo,1,80757,3732
Tfb1,1,157,38
CG18095,1,1.03e5,4382
CG14443,1,76695,5177
Elba1,1,1.59e5,5966
CG10332 (retired record) + IM18,1,1.06e5,5144
CG7530,1,64519,2850
ens,1,70526,3105
Vajk1,1,1.06e5,4635
mbt,1,1.39e5,5306
CG6204,1,77870,3425
obst-A,1,1.49e5,5413
CG7164,1,1.41e5,4676
Hsc70-4,1,54400,6571
Ras85D,1,1.43e5,5066
CG40005 (retired record) + cta,1,1.31e5,4326
HPS4,1,1.56e5,5121
wap,1,1.36e5,5254
PK1-R,1,1.13e5,6267
CG9014,1,1.06e5,4337
CG6726,1,1.15e5,6201
La,1,1.14e5,4799
CG6867,1,2.46e5,7983
nudC,1,1.42e5,7379
nudC,2,1.54e5,8812
kuz,1,1.03e5,4772
CG4679,1,1.01e5,4246
CG15347,1,1.11e5,5559
Targ,1,1.05e5,4826
halo,1,1.73e5,5844
CtsK2,1,77711,3416
Fili,1,1.09e5,3800
Fili,2,1.01e5,4395
Fili,3,1.02e5,4605
uncNacbeta,1,1.63e5,5702
Dh31,1,1.46e5,5001
erm,1,80847,3516
CAH16,1,86490,5211
CG13992,1,1.52e5,5594
Galk,1,69798,3197
ITP,1,1.09e5,4985
CG13408,1,71493,2827
CG13408,2,1.46e5,7597
CG2127,1,1.33e5,5075
CG13720,1,1.01e5,4007
CG10948,1,1.23e5,6501
ClpP,1,80532,3235
CG14837,1,1.04e5,3721
CG14321,1,1.23e5,9588
CG11168,1,86112,3525
CG43333,1,97481,4227
Cdk5,1,79226,3952
CG12679,1,1.45e5,6779
CG14006,1,1.48e5,5303
CCT5,1,2613,235
Met75Ca + Met75Cb,1,1.27e5,4127
Met75Ca + Met75Cb,2,1.62e5,9285
ms(2)35Ci,1,1.40e5,5474
Parp16,1,1.44e5,5007
Usp39,1,1.36e5,5143
